From PubChem BioAssay AID540256 (National Center for Advancing Translational Sciences (NCATS), 2011)
About 3,700 (1.2%) of roughly 300,000 compounds were called active. This list was built around the results that the source calls inconclusive (neither active nor inactive); the mix of calls is not that of the screen. Calls come from the whole dose curve; tested in HEK293 cells. Potencies beside an inconclusive call are fits to weak or partial responses and may not hold up.

Assay: qHTS for Inhibitors of binding or entry into cells for Lassa Virus; note: nearly all actives have a fitted effect of over 50% in size
Conditions: Lassa virus pseudotype entry inhibition, cell reporter; activity change, negative = inhibition: at 37.9 µM (top of the series) unless noted
% is set by controls: 0 for no effect and ±100 for the full control effect; potency is the fitted concentration of half-maximal effect.

| SMILES | Potency | activity change, negative = inhibition |
| --- | --- | --- |
| COC(=O)c1ccc(NC(=O)CSc2ccc(-c3sc(-c4ccccc4)nc3C)nn2)cc1 | inconclusive: 35.5 µM [activator, single point] |  |
| Cc1ccc(-n2nnc3c(=O)n(Cc4cc(C)ccc4C)cnc32)cc1 | inconclusive: 5.17 µM [inhibitor, partial curve, poor fit] |  |
| COc1ccc(C2CC(=O)N3CN(C4CCCCC4)CSC3=C2C#N)c(OC)c1 (configuration not stated) |  | inactive: 17% [at 46.1 µM] |
| COc1cc(Cl)c(C)cc1Nc1nc2ccccc2c2nnc(C)n12 |  | inactive: -1.45% [at 46.1 µM] |
| O=C(NCc1cccnc1)c1nn(-c2ccc(Cl)cc2)nc1CO |  | inactive: -14.6% [at 46.1 µM] |
| Cc1cc(C)c(C#N)c(SCc2cn3ccccc3n2)n1 |  | inactive: 16.2% |
| COc1ccc(/C=C2\SC(=O)N(CCn3cnnn3)C2=O)cc1 | inconclusive: 35.5 µM [inhibitor, single point] |  |
| Oc1ccc(/C(Cc2ccc3ccccc3n2)=N\Nc2ccccc2)c(O)c1 | inconclusive: 12.6 µM [inhibitor, partial curve, poor fit] |  |
| O=c1c2ccccc2nc(-c2ccccc2)n1-c1ccc(O)cc1 | inconclusive: 9.2 µM [inhibitor, partial curve, poor fit] |  |
| O=C(c1ccc2ccccc2c1)C1CCCN(C(=O)CN2C(=O)CSC2=O)C1 (configuration not stated) |  | inactive: 17.6% [at 46.1 µM] |
| Cc1cc(C)c2nc(C)cc(N/N=C/c3ccc(O)cc3)c2c1 | inconclusive: 11.2 µM [inhibitor, single point] |  |
| NC(=O)c1nsc(C(=O)N(Cc2ccco2)C(C(=O)NCc2ccccc2)c2ccc(O)cc2)c1N (configuration not stated) | inconclusive: 7.08 µM [inhibitor, full curve, poor fit] |  |
| COC(=O)c1cc(C(=O)c2c(C)cc3ccccn23)cc([N+](=O)[O-])c1 | inconclusive: 20 µM [inhibitor, partial curve, poor fit] |  |
| Cc1ccc(-n2cc(CNCCc3cscn3)c(-c3ccc(F)cc3)n2)cc1 | inconclusive: 11.2 µM [inhibitor, partial curve, poor fit] |  |
| CCN(CC)S(=O)(=O)c1ccc(-c2nnc(SCc3nnc(-c4ccccc4)o3)o2)cc1 | inconclusive: 23.1 µM [inhibitor, partial curve, poor fit] |  |
| CCc1cc2ccc(C)cc2nc1SCC(=O)N1CCN(C(=O)c2ccco2)CC1 | inconclusive: 20 µM [inhibitor, partial curve, poor fit] |  |
| c1ccc(-c2nc(N3CCNCC3)nc3ccccc23)cc1 | inconclusive: 14.1 µM [activator, partial curve, poor fit] |  |
| Cc1ccc(C2(C)NC(=O)N(CC(=O)Nc3ccccc3N3CCCCC3)C2=O)cc1 (configuration not stated) | inconclusive: 35.5 µM [inhibitor, single point] |  |
| C/C(=N\NC(=O)c1ccccc1O)c1ccc(NC(=O)c2ccccc2)cc1 | inconclusive: 0.794 µM [activator, full curve, poor fit] |  |
| COc1cc2c(cc1OC)CN(Cc1cc(=O)oc3c(C)c(C)ccc13)CC2 |  | inactive: -25.1% |
| CCc1ccc(/C=C/c2c[nH]c3ccccc23)[n+](CC)c1 | active: 12.6 µM |  |
| COc1ccc(/C=C/C(=O)NC(=S)N2CCSCC2)cc1 | inconclusive: 35.5 µM [inhibitor, partial curve, poor fit] |  |
| Cc1ccc(N(C(=O)c2cc3ccccc3oc2=O)C2C=CS(=O)(=O)C2)cc1 (configuration not stated) | inconclusive: 8.91 µM [activator, partial curve] |  |

Given comma-delimited: entries from further up
SMILES,Potency,"activity change, negative = inhibition"
COc1ccc(C2CC(=O)N3CN(C4CCCCC4)CSC3=C2C#N)c(OC)c1 (configuration not stated),,inactive: 17% [at 46.1 µM]
COc1cc(Cl)c(C)cc1Nc1nc2ccccc2c2nnc(C)n12,,inactive: -1.45% [at 46.1 µM]
O=C(NCc1cccnc1)c1nn(-c2ccc(Cl)cc2)nc1CO,,inactive: -14.6% [at 46.1 µM]
Cc1cc(C)c(C#N)c(SCc2cn3ccccc3n2)n1,,inactive: 16.2%
COc1ccc(/C=C2\SC(=O)N(CCn3cnnn3)C2=O)cc1,"inconclusive: 35.5 µM [inhibitor, single point]",
Oc1ccc(/C(Cc2ccc3ccccc3n2)=N\Nc2ccccc2)c(O)c1,"inconclusive: 12.6 µM [inhibitor, partial curve, poor fit]",

Next part.

| SMILES | Potency | activity change, negative = inhibition |
| --- | --- | --- |
| Cc1nn2c(NCCOCCO)c3c(nc2c1-c1ccccc1)CCCC3 |  | inactive: 3.67% |
| CC(=O)NNC(=S)NC(=O)c1ccccc1 |  | inactive: 2.4% |
| CC(C)c1ccc(/C=C2\SC(N3CCOCC3)=NC2=O)cc1 | inconclusive: 7.08 µM [inhibitor, partial curve, poor fit] |  |
| CC(NC(=O)CC(c1ccccc1)c1cc(Cl)ccc1O)c1ccccc1 (configuration not stated) | inconclusive: 8.2 µM [inhibitor, partial curve, poor fit] |  |
| CCOC(=O)c1cnc2ccc(C(=O)OC)cc2c1NCCCN1CCOCC1 | inconclusive: 22.4 µM [inhibitor, partial curve, poor fit] |  |
| N#Cc1sc(NCc2cccc(Cl)c2)nc1Cl | inconclusive: 31.6 µM [inhibitor, single point] |  |
| CCC(=O)NC(c1ccc(OC)cc1)c1cc(Cl)c2cccnc2c1O (configuration not stated) | active: 2.82 µM |  |
| CCCCn1c(=N)n(CCCOc2ccc(F)cc2)c2ccccc21 | inconclusive: 22.4 µM [inhibitor, single point] |  |
| Cc1ccccc1OCCc1c(C)[nH]c(=S)[nH]c1=O | inconclusive: 7.94 µM [inhibitor, partial curve, poor fit] |  |
| CCn1cc2nc(SCc3cc(C)ccc3C)n(CCc3ccccc3)c(=O)c2n1 | active: 3.98 µM |  |
| c1ccc(Cn2ncc3c(N4CCN(C(c5ccccc5)c5ccccc5)CC4)ncnc32)cc1 | inconclusive: 5.01 µM [inhibitor, partial curve] |  |
| O=C(CN(C(=O)Cn1nnc(-c2cccs2)n1)c1ccc2c(c1)OCCO2)NC1CCCCC1 |  | inactive: 13.4% |
| O=C1CN(c2ccccc2)C(=S)N1C(=O)c1ccc(Br)cc1 | inconclusive: 35.5 µM [inhibitor, single point] |  |
| Cc1cccc(N2CCN(S(=O)(=O)c3c(C)nc4scc(C)n4c3=O)CC2)c1C | inconclusive: 3.16 µM [inhibitor, single point] |  |
| COc1ccccc1-c1nnc(SCC(=O)N2CCCCC2)o1 | inconclusive: 35.5 µM [inhibitor, single point] |  |
| CC(=O)C1=C(O)C(=O)N(Cc2cccnc2)C1c1ccccc1 (configuration not stated) | inconclusive: 2.59 µM [inhibitor, partial curve, poor fit] |  |
| COc1ccccc1Nc1ncnc2c1c(C)c(C)n2CCO |  | inactive: 28.7% [at 46.1 µM] |
| Clc1ccc(-c2nn3c(C4COc5ccccc5O4)nnc3s2)cc1 (configuration not stated) | active: 6.51 µM |  |
| COc1ccccc1NC(=O)NCCCCc1ccccc1 | inconclusive: 35.5 µM [inhibitor, single point] |  |
| CC(C)Oc1cccc(C(=O)Nc2ccc(Br)cc2F)c1 | active: 2 µM |  |
| CSc1ccccc1C(=O)NCCOc1cccc(C)c1 | inconclusive: 0.1 µM [inhibitor, full curve, poor fit] |  |
| CCOc1ccc(NC(=S)N2CCN(S(=O)(=O)c3ccccc3)CC2)cc1 | inconclusive: 6.31 µM [inhibitor, single point] |  |
| Cc1ccccc1OCC(O)CNC1CCC(NCC(O)COc2ccccc2C)CC1 (configuration not stated) | inconclusive: 35.5 µM [inhibitor, single point] |  |

| SMILES | Potency | activity change, negative = inhibition |
| --- | --- | --- |
| Cn1c(Cn2cnc3ccccc32)nnc1SCC(=O)CC(=O)Nc1ccccc1 |  | inactive: 20.9% |
| COc1ccc(/C=C/C(=O)OC(C)C(=O)c2ccccc2)cc1OC (configuration not stated) | inconclusive: 10 µM [inhibitor, partial curve, poor fit] |  |
| CC(C)(C)c1ccc(C(=O)Nc2ccc(S(N)(=O)=O)cc2)cc1 | inconclusive: 35.5 µM [inhibitor, single point] |  |
| COc1ccc(Cn2nnnc2CN(Cc2cc3cc(C)ccc3[nH]c2=O)C2CCCC2)cc1 | inconclusive: 14.6 µM [inhibitor, partial curve] |  |
| Cn1cc(CN(C(=O)Nc2ccccc2)C2CCCCC2)c2ccccc21 | inconclusive: 35.5 µM [inhibitor, single point] |  |
| COc1ccc(-c2nc3sc(CCNC(=O)C(=O)Nc4cccc(NC(C)=O)c4)c(C)n3n2)cc1 |  | inactive: -1.57% [at 46.1 µM] |
| COc1ccc(C)cc1NC(=O)CN1CCCC1c1ccc2c(c1)OCCCO2 (configuration not stated) | inconclusive: 35.5 µM [inhibitor, single point] |  |
| O=C(CSc1ncc(-c2ccccc2)n1C1CCCC1)N1CCc2ccccc21 | inconclusive: 4.61 µM [inhibitor, partial curve, poor fit] |  |
| CN(C)c1ncc(CN2CCC(C(=O)Nc3ccc(-n4cccn4)cc3)CC2)s1 |  | inactive: 10.7% |
| COc1ccc2oc(C(=O)N3CCN(C(c4ccccc4)c4ccccc4)CC3)c(C)c2c1 | inconclusive: 11.2 µM [inhibitor, partial curve, poor fit] |  |
| O=S(=O)(O/N=C1\CCCc2ccccc21)c1ccc(Cl)cc1 | inconclusive: 1.16 µM [activator, single point] |  |
| CC1CCCN(S(=O)(=O)c2cccc3nonc23)C1 (configuration not stated) | inconclusive: 0.631 µM [inhibitor, full curve, poor fit] |  |
| CS(=O)(=O)N(CCc1ccccc1)CC(=O)N1CCN(c2ccccc2F)CC1 | inconclusive: 13 µM [inhibitor, partial curve] |  |
| Cc1cc(CNC(=O)[C@H](C)[C@@H]2C[C@@]2(C)[C@@H](NC(=O)OCc2ccccc2)c2ccccc2)nn1C | inconclusive: 16.4 µM [inhibitor, single point] |  |
| CNCCC1Sc2ccccc2Oc2ccccc21 (configuration not stated) | inconclusive: 6.31 µM [activator, single point] |  |
| O=C(NCC(=O)N1CCOCC1)c1ccc(Cl)c(Cl)c1 | inconclusive: 5.01 µM [activator, full curve] |  |
| Nc1c(C(=O)c2ccc(Cl)cc2)oc2ccccc12 | inconclusive: 20 µM [activator, single point] |  |
| COC(=O)c1cc2c(n1S(=O)(=O)c1ccc(C)cc1)C(=O)C(=O)c1[nH]cc(C(=O)OCc3ccccc3)c1-2 | active: 2.82 µM |  |
| Nc1ccc2nc(-c3ccccc3)sc2c1 | active: 3.16 µM |  |
| COc1cccc(CN2CCN(C(=O)c3ccc(-c4ccccc4)cc3)CC2)c1OC |  | inactive: -21.6% |
| Cc1ccc(N2C(=O)c3ccc(C(=O)N4CCN(c5ccc(C)c(C)c5)CC4)cc3C2=O)cc1 | inconclusive: 3.55 µM [inhibitor, single point] |  |
